Results taken from PMC9448326 (2022).

B1: Xenopus laevis wild-type GJA1-Flag [Xenopus laevis] / HA-tagged Rab11a [human] (parent complex)
chain 1: MGDWSALGRLLDKVQAYSTAGGKVWLSVLFIFRILLLGTAVESAWGDEQSAFVCNTQQPGCENVCYDKSFPISHVRFWVLQIIFVSTPTLLYLAHVFYLMRKEEKLNRKEEELKMVQNEGGNVDMHLKQIEIKKFKYGLEEHGKVKMRGGLLRTYIISILFKSVFEVGFIIIQWYMYGFSLSAIYTCKRDPCPHQVDCFLSRPTEKTIFIWFMLIVSIVSLALNIIELFYVTYKSIKDGIKGKKDPFSATNDAVISGKECGSPKYAYFNGCSSPTAPMSPPGYKLVTGERNPSSCRNYNKQASEQNWANYSAEQNRMGQAGSTISNTHAQPFDFSDEHQNTKKMAPGHEMQPLTILDQRPSSRASSHASSRPRPDDLEI
chain 2: MGTRDDEYDYLFKVVLIGDSGVGKSNLLSRFTRNEFNLESKSTIGVEFATRSIQVDGKTIKAQIWDTAGQERYRAITSAYYRGAVGALLVYDIAKHLTYENVERWLKELRDHADSNIVIMLVGNKSDLRHLRAVPTDEARAFAEKNGLSFIETSALDSTNVEAAFQTILTEIYRIVSQKQMSDRRENDMSPSNNVVPIHVPPTTENKPKVQCCQNI

Variants of: B1
Test: co-immunoprecipitation (anti-flag antibody-conjugated beads), quantified immunoblot; HA-tagged Rab11a and GJA1-Flag co-expressed in RPE1 cells; n=3; parent: 1; read off a plot

| ratio to parent | Variant |
| --- | --- |
| ~0.38 | chain 1 T154A |
